{"source": "PubChem BioAssay AID2685", "about": "(National Center for Advancing Translational Sciences (NCATS), 2010)", "note": "In all, about 320,000 compounds went through this assay and about 2,100 (0.66%) were called active. The inconclusive results got no clear call from the source; some entries with a clear call stand among them for comparison. Calls follow the shape of the dose curve; as a rule, active = well fitted inhibition curve with a large enough effect in the signal ratio, with a control signal flat (not every such curve was filed as active); inconclusive = small, poorly fitted or top-dose-only effect, or effect the other way, or a change in a side signal; inactive = flat fitted curve, though single readings scatter; the % refers to the signal ratio. A potency beside an inconclusive call is a rough fit, not a confirmed value. % is scaled to controls: 0 for no effect and ±100 for the full control effect; potency is read from the fitted curve at half-maximal effect."}
{"experiment": "qHTS Assay for Lipid Storage Modulators in Drosophila S3 Cells", "details": "BODIPY lipid droplet fluorescence, 18-24 h, cells fed with added oleic acid; lipid storage change, negative = inhibition: at 46.1 µM (top of the series) unless noted", "in_short": "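Drosophila S3 cells loaded with oleic acid (400 uM, as added) and compounds at several concentrations; lipid droplets imaged by 488-nm laser-scanning cytometry, 500–530 nm intensity and object ratio to cell channel. Percent activity normalized to 20 uM Triacsin C.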"}
{"smiles": "Cc1cc(Br)c(NC(=O)CCNC(=O)OCc2ccccc2)cc1C", "Potency": "inconclusive: 3.26 µM [falling, full curve, poor fit]"}
{"smiles": "CC(=O)c1cccc(NC(=O)c2oc(C)nc2C)c1", "Potency": "inconclusive: 32.6 µM [falling, single point]"}
{"smiles": "COC(=O)c1ccc2c(=O)n(CCCCCC(=O)NCc3ccccn3)c(=O)[nH]c2c1", "Potency": "inconclusive: 0.103 µM [rising, full curve, poor fit]"}
{"smiles": "CCn1c(O)c(N=NC(=O)C2C(=O)NCC2c2ccccc2)c2ccccc21", "note": "(configuration not stated)", "lipid storage change, negative = inhibition": "inconclusive: 11.9%"}
{"smiles": "COc1ccc(N2CC(C(=O)NCCC3=CCCCC3)CC2=O)cc1", "note": "(configuration not stated)", "Potency": "inconclusive: 4.11 µM [falling, single point]"}
{"smiles": "c1ccc(CSc2nnnn2-c2ccccc2)cc1", "lipid storage change, negative = inhibition": "inconclusive: 339%"}
{"smiles": "Cc1ccc(C)c(Cc2c(C)nc(C)[nH]c2=O)c1", "lipid storage change, negative = inhibition": "inconclusive: 18.3%"}
{"smiles": "O=C(O)c1ccc(-c2sc(Nc3ccccc3)n[n+]2-c2ccc(F)cc2)cc1", "Potency": "inconclusive: 16.4 µM [activator, partial curve]"}
{"smiles": "CCC(NC(=O)Nc1nnc(C(F)(F)F)s1)(C(F)(F)F)C(F)(F)F", "Potency": "active: 16.4 µM"}
{"smiles": "O=C(Nc1nnc(C2CC2)s1)c1cc(-c2ccccc2)nn1-c1ccccc1", "lipid storage change, negative = inhibition": "inconclusive: 39.6%"}
{"smiles": "CCN(CC(=O)NCc1ccc(Cl)cc1)CC(=O)NC1(C#N)CCCC1", "Potency": "inconclusive: 29.1 µM [activator, single point]"}
{"smiles": "NC(=O)COC(=O)CC1CC2CCC1C2", "note": "(configuration not stated)", "lipid storage change, negative = inhibition": "inconclusive: -34.7% [at 0.00295 µM]"}
{"smiles": "COc1ccc(-c2cc(C(=O)N(C)CC(=O)Nc3ccccc3Cl)c3ccccc3n2)cc1OC", "lipid storage change, negative = inhibition": "inconclusive: 11.6%"}
{"smiles": "CC(=O)Nc1nc(CCN2C(=O)c3ccccc3C2=O)cs1", "lipid storage change, negative = inhibition": "inconclusive: -6.21%"}
{"smiles": "CC1CCc2sc(C(=O)NNC(=O)c3ccncc3)cc2C1", "note": "(configuration not stated)", "lipid storage change, negative = inhibition": "inconclusive: 28.3%"}
{"smiles": "COc1cc(C(C)=O)ccc1Oc1ncnc2c1cnn2-c1cccc(Cl)c1", "Potency": "inconclusive: 16.4 µM [rising, partial curve]"}
{"smiles": "Cc1ccccc1CC(=O)Nc1ccc(C(=O)N2CCCC2)cc1", "Potency": "inconclusive: 5.17 µM [falling, full curve, poor fit]"}
{"smiles": "O=C1CC(=C(c2ccccc2)c2ccccc2)C(=O)N1CCCCN1CCN(c2ccccc2)CC1", "lipid storage change, negative = inhibition": "inconclusive: 68.8%"}
{"smiles": "COC(=O)C1CCN(C(=O)Cc2c(OC)ccc3cc(Br)ccc23)CC1", "Potency": "inconclusive: 29.1 µM [cytotoxic, single point]"}
{"smiles": "CC12CCC(C(=O)NCC3CCCO3)(OC1=O)C2(C)C", "note": "(configuration not stated)", "Potency": "inconclusive: 1.03 µM [falling, partial curve]"}
{"smiles": "COc1ccc(-c2nc3ccc(C(=O)NCC(OC)OC)cc3nc2-c2ccc(OC)c(OC)c2)cc1OC", "Potency": "inconclusive: 5.8 µM [falling, partial curve]"}
{"smiles": "O=C(NC(Cc1ccccc1)c1nc2ccccc2[nH]1)C1CC(=O)N(c2ccc3c(c2)OCCO3)C1", "note": "(configuration not stated)", "lipid storage change, negative = inhibition": "inconclusive: 27.6%"}
{"smiles": "CCN1C(=O)[C@H]2[C@@H](c3ccc(-c4ccc(Cl)c(Cl)c4)cc3)N3CCCC[C@@]3(C(=O)OC)[C@H]2C1=O", "lipid storage change, negative = inhibition": "inconclusive: 86.5%"}
{"smiles": "CCOC(=O)C1CCN(C(=O)c2cccc(NS(=O)(=O)c3ccc(F)c(F)c3)c2)CC1", "lipid storage change, negative = inhibition": "inconclusive: 15.9%"}
{"smiles": "Cc1occc1-c1nnc(SCC(=O)Nc2ccccc2-c2ccccc2)n1C", "lipid storage change, negative = inhibition": "inconclusive: 48.4%"}
{"smiles": "Cc1cc(C)cc(OCC(=O)Nc2cccc(-c3nc4ncccc4o3)c2)c1", "Potency": "inconclusive: 0.0052 µM [activator, full curve, poor fit]"}
{"smiles": "O=C(c1ccco1)N1CCN(c2ncnc3sc4c(c23)CCC4)CC1", "lipid storage change, negative = inhibition": "inconclusive: 27.7%"}
{"smiles": "CCOC(=O)Nc1ccc2c(c1)N(C(=O)CN(CC)CC)c1ccccc1C=C2", "lipid storage change, negative = inhibition": "inconclusive: -10.3%"}
{"smiles": "Cn1c(=O)[nH]c(=O)c2c1nc(N1CCOCC1)n2CCN1CCOCC1", "lipid storage change, negative = inhibition": "inconclusive: -18.8%"}
{"smiles": "CCn1cc(CN2CCC(C(=O)Nc3cccc(-c4cccc(Cl)c4)c3)CC2)c(C)n1", "Potency": "inconclusive: 35.5 µM [falling, single point]"}
{"smiles": "O=C(NCCN1CCOCC1)c1ccc(=O)oc1", "lipid storage change, negative = inhibition": "inconclusive: -6.22%"}
{"smiles": "O=C(Nc1cccc(C(F)(F)F)c1)c1csc(-c2ccncc2)n1", "lipid storage change, negative = inhibition": "inconclusive: 0.304% [cytotoxic]"}
{"smiles": "CCCN(CC(=O)Nc1cc(Cl)ccc1Cl)C(=O)c1ccc2n[nH]nc2c1", "lipid storage change, negative = inhibition": "inconclusive: -37%"}
{"smiles": "CC(=O)N1CCN(c2ccc(NS(=O)(=O)c3ccc(C)cc3)cc2)CC1", "lipid storage change, negative = inhibition": "inconclusive: 66%"}
{"smiles": "Cc1ccc2c(C)nc(N/C(N)=N/S(=O)(=O)c3ccccc3)nc2c1", "Potency": "inconclusive: 0.0046 µM [falling, full curve]"}
{"smiles": "C/C=C/C=C(/NC(=O)c1ccccc1)C(=O)Nc1ccccc1", "lipid storage change, negative = inhibition": "inconclusive: 27.1%"}
{"smiles": "COc1ccc(C(=O)NNC(=O)c2ccc(S(=O)(=O)N3CCOCC3)cc2)cc1", "lipid storage change, negative = inhibition": "inconclusive: -0.656%"}
{"smiles": "COc1ccc(C(C(=O)NC2CCCCC2)N(C(=O)c2snc(C(N)=O)c2N)c2ccc(OC)cc2OC)cc1", "note": "(configuration not stated)", "lipid storage change, negative = inhibition": "inconclusive: -6.7%"}
{"smiles": "Cc1noc(C)c1C(c1ccccc1)c1ccccc1", "lipid storage change, negative = inhibition": "inconclusive: 38.1%"}
{"smiles": "COc1ccc(NC(=S)NN2CCOCC2)cc1OC", "lipid storage change, negative = inhibition": "inconclusive: 10.2%"}
{"smiles": "Cc1cc(=O)[nH]c(N/N=C/c2cccc(Br)c2)n1", "lipid storage change, negative = inhibition": "inconclusive: -67.5%"}
{"smiles": "CCOc1cc(NS(=O)(=O)c2ccc(NC(C)=O)cc2)c(OCC)cc1NC(=O)c1cccs1", "lipid storage change, negative = inhibition": "inconclusive: 24.3%"}
{"smiles": "Cc1cc(C(=O)O)c(C)n1-c1ccccc1", "Potency": "inconclusive: 0.82 µM [falling, full curve]"}
{"smiles": "Cc1nnc(NC(=O)C2CCN(C(=O)c3ccco3)CC2)s1", "lipid storage change, negative = inhibition": "inconclusive: 73%"}
{"smiles": "Cc1onc(-c2ccccc2Cl)c1C(=O)N1C=CC(C(F)(F)Cl)=NCC1", "lipid storage change, negative = inhibition": "inconclusive: 16.6%"}
{"smiles": "COc1ccc(C(=O)Nc2cccc(/C=C/c3nc4ccccc4c(=O)[nH]3)c2)cc1", "Potency": "inconclusive: 16.4 µM [falling, single point]"}
{"smiles": "O=C(O)c1cccc(S(=O)(=O)N(Cc2ccccc2)c2cccc(C(F)(F)F)c2)c1", "Potency": "inconclusive: 7.31 µM [falling, full curve]"}
